In all, about 320,000 compounds went through this assay and about 22,000 (6.9%) were called active. Inconclusive results, whose numbers are uncertain, are shown with a selection of clear calls. The call rests on the fitted dose curve; in most records, active means well fitted inhibition curve with a large enough effect; inconclusive means small, poorly fitted or top-dose-only effect, or another doubt; inactive means no such curve, though single readings can be large or run the other way. A potency beside an inconclusive call is a rough fit, not a confirmed value.
assay: Primary qHTS for delayed death inhibitors of the malarial parasite plastid, 96 hour incubation; details: P. falciparum luciferase reporter growth; series mostly up to 28.7 µM; activity change, negative = inhibition: at the top concentration
Procedure, shortened: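 Readout is luminescence from an integrated firefly luciferase in P. falciparum. Red cells, 2% hematocrit and 0.05% parasitemia final, were cultured with compound through two parasite generations (96 hours) at 37 C, 5% CO2.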
On the % scale 0 is the no-effect control and ±100 the full control effect; potency means the concentration at half of the fitted maximal effect.

Row | SMILES | Potency | activity change, negative = inhibition
1 | Cc1ccc(S(=O)(=O)N(C)C)cc1NC(=O)COc1cccc(-n2cnnn2)c1 | inconclusive: 18.5 µM [inhibitor, single point] | 
2 | CCC(Cc1c(I)cc(I)c(N)c1I)C(=O)O (stereo not given) |  | inactive: 10%
3 | COC(=O)c1ccc(/C=N/NC(=S)NCCN2CCOCC2)cc1 | inconclusive: 18.5 µM [inhibitor, single point] | 
4 | Cc1cc(S(=O)(=O)Nc2c(NC3CCCCC3)c3ccccc3oc2=O)ccc1F | active: 10.4 µM | 
5 | CCn1c(SCC(=O)NCc2ccccc2)nc2c(c1=O)SC(C)C2 (stereo not given) | inconclusive: 18.5 µM [inhibitor, single point] | 
6 | COc1ccc(-c2noc(C3CCCN(S(=O)(=O)c4cccc(Cl)c4C)C3)n2)cc1OC (stereo not given) | inconclusive: 18.5 µM [inhibitor, single point] | 
7 | CCn1c(=O)c(=O)[nH]c2cc(C(=O)NCC3CCCCC3)ccc21 | inconclusive: 18.5 µM [inhibitor, single point] | 
8 | COc1ccc([C@@H]2CC=C(C(=O)O)[C@H](c3ccccc3F)N2S(=O)(=O)c2ccc(C)cc2)cc1OC | inconclusive: 11.7 µM [inhibitor, single point] | 
9 | Cc1ccc(Nc2nc(NCC3CCCO3)nc(N)c2[N+](=O)[O-])cc1 (stereo not given) | active: 11.7 µM | 
10 | Cc1ccc(CN2C3CCCC2CC(NC(=O)c2ccc(C)cc2)C3)cc1 (stereo not given) |  | inactive: -1.17%
11 | COc1ccccc1C1/C(=C(\O)c2ccc3c(c2)OCCO3)C(=O)C(=O)N1CCCN(C)C (stereo not given) | inconclusive: 9.28 µM [inhibitor, single point] | 
12 | COc1ccc(Sc2ccc(/C=C3\C(=O)NN(c4ccccc4)C3=O)o2)cc1 |  | inactive: 13%
13 | CCCCN(C)C(=O)Cn1c(=O)oc2cc(S(=O)(=O)N3CC(C)CC(C)C3)ccc21 (stereo not given) | active: 13.1 µM | 
14 | C=CCn1c(=O)[nH]c2cc(C(=O)N3CC=C(c4ccccc4)CC3)ccc2c1=O |  | inactive: -13.9%
15 | Cc1cccc(C(=O)N2CCCN(C(=O)c3cccc(C)c3)CC2)c1 | inconclusive: 0.147 µM [inhibitor, full curve, poor fit] | 
16 | CCOc1c(Cl)cc(/C=C/C(=O)N(CC)CC(=O)Nc2ccc(NC(C)=O)cc2)cc1OC | inconclusive: 10.4 µM [inhibitor, single point] | 
17 | CCn1c(N)c(C(=O)NCC2CCCO2)sc1=S (stereo not given) |  | inactive: 3.84%
18 | COC(=O)c1ccc(CN2CCCC(C(=O)c3cc(F)ccc3OC)C2)cc1 (stereo not given) | inconclusive: 4.15 µM [inhibitor, single point] | 
19 | Cc1nc(SCc2ccccc2)c(C(F)(F)F)c(=O)[nH]1 | active: 5.22 µM | 
20 | Cc1cc(C)cc(OC(=O)CN2C(=O)c3ccccc3C2=O)c1 | inconclusive: 13.1 µM [inhibitor, single point] | 
21 | Cc1ccc(-c2nn(-c3ccccc3)cc2C(=O)N2CCN(c3ccccn3)CC2)cc1 | inconclusive: 2.94 µM [inhibitor, partial curve, poor fit] | 
22 | COc1ccc2cc3cc(C(=O)NCCN4CCN(c5ccccc5F)CC4)oc3nc2c1 |  | inactive: 36%
23 | CC(C1CC1)N(Cc1ccccc1)C(=S)Nc1ccccc1 (stereo not given) |  | inactive: 52.8%

Grouped by structure, the compounds so far with a carbonyl joined to an NH by a bond outside any ring (7)
Row | SMILES | Potency | activity change, negative = inhibition
1 | Cc1ccc(S(=O)(=O)N(C)C)cc1NC(=O)COc1cccc(-n2cnnn2)c1 | inconclusive: 18.5 µM [inhibitor, single point] | 
5 | CCn1c(SCC(=O)NCc2ccccc2)nc2c(c1=O)SC(C)C2 (stereo not given) | inconclusive: 18.5 µM [inhibitor, single point] | 
7 | CCn1c(=O)c(=O)[nH]c2cc(C(=O)NCC3CCCCC3)ccc21 | inconclusive: 18.5 µM [inhibitor, single point] | 
10 | Cc1ccc(CN2C3CCCC2CC(NC(=O)c2ccc(C)cc2)C3)cc1 (stereo not given) |  | inactive: -1.17%
16 | CCOc1c(Cl)cc(/C=C/C(=O)N(CC)CC(=O)Nc2ccc(NC(C)=O)cc2)cc1OC | inconclusive: 10.4 µM [inhibitor, single point] | 
17 | CCn1c(N)c(C(=O)NCC2CCCO2)sc1=S (stereo not given) |  | inactive: 3.84%
22 | COc1ccc2cc3cc(C(=O)NCCN4CCN(c5ccccc5F)CC4)oc3nc2c1 |  | inactive: 36%

(continued)

Row | SMILES | Potency | activity change, negative = inhibition
24 | c1ccc(Nc2cccc(Nc3ccccc3)c2)cc1 | inconclusive: 18.5 µM [inhibitor, single point] | 
25 | COC(=O)C1=C(CS(=O)(=O)c2ccccc2)NC(=O)NC1c1ccccc1 (stereo not given) |  | inactive: 2.28%
26 | CCOC(=O)/C(=C/C=C1\Sc2ccccc2N1CC)C(C)=O |  | inactive: 46.2%
27 | CCC(C)Sc1ccc([C@@H]2[C@H]3C(=O)N(CC)C(=O)[C@H]3[C@]3(C(=O)OC)CCCCN23)cc1 (stereo not given in full) | active: 3.29 µM | 
28 | CCN1CCN(c2c(C(=O)c3ccc(OC)cc3)cnc3ccccc23)CC1 |  | inactive: 35.2%
29 | O=C(Cc1coc2ccc3ccccc3c12)N1CCN(c2ncccn2)CC1 | active: 8.28 µM | 
30 | O=C(CN(Cc1ccc(Cl)c(Cl)c1)S(=O)(=O)c1ccccc1)N/N=C\c1ccc2c(c1)OCO2 | inconclusive: 18.5 µM [inhibitor, partial curve, poor fit] | 
31 | CCCN1CCN(CCCNC(=O)c2cc3c(s2)-c2ccccc2OC3)CC1 | inconclusive: 18.5 µM [inhibitor, single point] | 
32 | COc1ccc2nc(NC(=O)CN(C)S(=O)(=O)c3cccs3)sc2c1 | inconclusive: 5.86 µM [inhibitor, partial curve] | 
33 | Cc1cc(NC(=O)CSc2nnc(-c3ccco3)n2Cc2ccco2)no1 | inconclusive: 10.4 µM [inhibitor, single point] | 
34 | CCN(CC)CCN(Cc1cc2cc3c(cc2[nH]c1=O)OCO3)C(=S)NC |  | inactive: -13.2%
35 | O=C(Nc1ccc(CN2CCOCC2)cc1)c1ccco1 |  | inactive: 59.1%
36 | Cc1cc(C)c2oc(C(=O)N(Cc3ccccc3)c3ccccn3)cc(=O)c2c1 | inconclusive: 4.65 µM [inhibitor, partial curve, poor fit] | 
37 | O=C1CCC(C(=O)OC(C(=O)Nc2cc(Cl)cc(Cl)c2)c2ccccc2)=NN1 (stereo not given) | inconclusive: 14.7 µM [inhibitor, single point] | 
38 | CC(C)(C)NC(=O)c1cccc(NC(=O)c2cccc(O)c2)c1 | inconclusive: 11.7 µM [inhibitor, partial curve, poor fit] | 
39 | COc1ccc(NS(=O)(=O)c2cccc(C(=O)N/N=C/c3ccccc3OC)c2)cc1 |  | inactive: 47.8%
40 | CCC(CC)c1nnc(NC(=O)C2=COCCO2)s1 |  | inactive: 65.7%
41 | CCN1CCN(c2cn[nH]c(=O)c2Cl)CC1 | inconclusive: 11.7 µM [inhibitor, single point] | 
42 | O=C1NC(=S)S/C1=C\c1ccc(SCc2ccccc2)o1 | inconclusive: 6.57 µM [inhibitor, partial curve, poor fit] | 
43 | Cc1cccc(NS(=O)(=O)c2cc3c4c(c2)C(C)C(=O)N4CCC3)c1 (stereo not given) | inconclusive: 11.7 µM [inhibitor, single point] | 
44 | Cc1ccccc1OC(C)C(=O)NCc1cccnc1 (stereo not given) | inconclusive: 1.65 µM [inhibitor, partial curve, poor fit] | 
45 | COc1ccc(CCC(=O)N2CCCC(Nc3ccc(C)c(C)c3)C2)cc1OC (stereo not given) | inconclusive: 13.1 µM [inhibitor, single point] | 

From PubChem BioAssay AID504834 (National Center for Advancing Translational Sciences (NCATS), 2011)
